In patent US20200055939A1:
Changes are numbered by the printed parent chain. Results are given in words; binding and its absence hold for the method and conditions named.

By UniProt entry, the sequences of proteins in these tests, tags left out. Where a name states a change or a piece, a line headed by the entry shows the natural chain unless it says otherwise.
UniProt Q29983: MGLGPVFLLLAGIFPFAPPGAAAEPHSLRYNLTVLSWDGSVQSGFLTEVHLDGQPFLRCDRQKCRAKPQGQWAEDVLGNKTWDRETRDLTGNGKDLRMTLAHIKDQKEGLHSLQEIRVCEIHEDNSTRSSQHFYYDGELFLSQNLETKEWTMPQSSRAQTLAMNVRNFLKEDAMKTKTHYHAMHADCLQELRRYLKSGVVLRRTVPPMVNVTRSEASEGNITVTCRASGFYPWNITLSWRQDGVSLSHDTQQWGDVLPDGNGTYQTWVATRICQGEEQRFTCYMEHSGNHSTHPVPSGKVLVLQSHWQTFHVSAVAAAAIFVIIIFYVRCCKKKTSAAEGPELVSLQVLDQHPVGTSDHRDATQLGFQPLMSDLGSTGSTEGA

B1: 7D4.6 (antibody, V domains shown)
VH: DVQLQESGPGLVKPSQSLSLTCTVTGYSITSDYAWNWIRQFPRNKLEWMGYINYSGTTNYNPSLKSRISITRDTSKNQFFLQLISVTTEDTATYYCSYYRYDGAWFPYWGQGTLVTVSA
VL: DIQMTQSPASLSASVGETVTITCRASGNIHNYLAWYQQKQGKSPQLLVYNAIMLADGVPSRFSASGSGTQYSLKINSLQPEDFGSYYCQHFWSFPLTFGAGTKVEIK
B2: 6F8.7 (antibody, V domains shown)
VH: DVQLQGSGPGLVKPSQSLSLTCSVTGYSITNDYYWNWIRQFPGNKLEWMGFISFGGSNNYNPSLKNRISITRDTSKNQFFLKLSSVTTEDTATYYCARYDGRGAWFAYWAQGTLVTVSA
VL: B1 VL with N50D, M53T, A64G, S85N
B3: 32D2 (antibody, V domains shown)
VH: DVHLVESGGGLVQPGGSRKLSCAASGFTFNTFGMNWVRQAPEKGLEWVAYINSGSNTIYYADTVKGRFTISRDNPKNTLFLQMTSLRSEDTAMYYCTRWEPVTGGFSYWGQGTLVTVSA
VL: QIVLTQSPAFKSSSLGERVTMTCTASSSISSSYLHWYQQKPGSSPKLWIYTTSNLASGVPARFSGSGSGTSYSLTISTMEAEDAATYYCHQHHRSPFTFGSGTKVEIK
B4: 3E11 (antibody, V domains shown)
VH: EIQLQQSGPELVKPGASVKVSCTASGYAFTKYNIYWVKQSHGKSLEWIGYIDPYTGGTISNQKFTGRATLTVDKSSSTAYLHLNSLTSEDSAVYYCARPGSYWYFGVWGAGTTVTVSS
VL: DILMTQTPLSLPVSLGDQASISCRSSQSIVYTNGNTNLEWYLQKPGQSPKLLIYKVSNRFSGVPDRFSGSGSGTDFTLKISRVEAEDLGVYYCFQASYVPFTFGSGTKVEIK
B5: 15F11 (antibody, V domains shown)
VH: EIQLQQSGPELVKPGASVRVSCKPSGYAFTSNNIYWVKQSRRKSLEWIGYIDPYIGRIIYNQQFKDKATLTVDKSSSTAYMHLNSLTSEDSAVYYCSRSGERSNFDYWGQGTTLTVSS
VL: EIVLTQSPTAMAASPGEKITITCSASSSISSNYLHWYQQKPGFSPKLLIYRTSNLASGVPARFSGSGSGTSYSLTIGPMEAEDVATYYCQQGGSLPLTFGAGTKVEIK
B6: 1D5 (antibody, V domains shown)
VH: EIQLQQSGPELVKPGASVKVSCKASGYAFTSQNIYWVKQSHGKSLEWIGYIEPYNVVPMYNPKFKGKATLTVDKSSSSAYIHLNSLTSEDSAIYYCARSGSSNFDYWGQGTTLTVSS
VL: B5 VL with V3I, A10T, N32H, P41S, P78T, G93S
B7: 9C9.5.6 (antibody, V domains shown)
VH: QVQLKESGPGLVAPSQSLSITCTVSGFSLNGQGVNWVRQPPGKGLEWLGMIWGDGSTDYNSALKSRLSISKDNSRSQVFLKMNSLQTDDTARYYCARGAHYGKRWYFDVWGAGTTVTVSS
VL: DIQMTQTTSSLSASLGDRVTISCSASQNINNYLNWYQQKPHGTVKLLIYYTSSLPSGVPSRFSGSGSGTDYSLTISNLEPEDIASYYCQQYSKLPPTFGGGTKVEIK
B8: 1E6.1.3 (antibody, V domains shown)
VH: B7 VH with N30T, Q32S, K43Q, S56N, R75K
VL: B7 VL with S9F, N28G, K39R, H41D, S53T
B9: 7A3.1.9 (antibody, V domains shown)
VH: B7 VH with S28A, N30T, Q32S, S56N, R75K, V78I
VL: B7 VL with N28G, H41D, S85T
B10: 6E12.5 (antibody, V domains shown)
VH: EVQLVESGGGLVKPGGSLKLSCAASGFTFSDYYMYWVRQTPEKRLEWVATISDGITYTYYSDSVRGRFTISRDNAENTLYLQMSSLKSEDTAMYYCSKGGGSTARGALDFWGQGTSVTVSS
VL: DIQMNQSPSSLSASLGDTITITCHASQNIHVWLSWYQQKPGNIPKLLIYGASHLHTGVPSRFSGRGSGTGFTLTISSLQPEDIATYYCLQGQSYPLTFGSGTKVEIK
B11: 20G11 (antibody, V domains shown)
VH: DVQLVESGGGLVQPGGSRKLSCAASGFTFSTFGIHWVRQAPEKGLEWVAYISYDSRTIYYADTVKGRFTISRDNPKNTLFLQMTSLRSEDTAMYYCARWAYEGGVNYFDNWGQGTTLTVSS
VL: QIVLTQSPAIMSASLGERVTMTCTATSGVSSSYLHWYQQKPGSSPKLWIYSSSNLASGVPARFSGSGSGTSYSLTIGSMEAEDAATYYCHQFHRSPLTFGTGTKVEIK
B12: 12H10 (antibody, V domains shown)
VH: DVQLQESGPGLVKPSQPLSLTCTVTGYSITSNYAWNWIRQFPGDKLEWMGYISSSGITKSNPSLKSRISITRDTSKNQFFLQLNSLTTEDTATYYCSRWSNWSFDVWGAGTTVTVSS
VL: DIQMTQTPSSLSVSLGDRVTINCRASQDIHNYFNWYQQKPDGTIKLLIYYTSRFHSGVPSRFSGSGSGTDYSLTISNLEEEDIATYFCQQGNSLPPTFGGGTKLEIK
B13: 18G3 (antibody, V domains shown)
VH: VQLQESGPGLVKPSQSLSLTCNVTGYSITGDYAWNWIRQFPGNKLEWIGYIGYTGSTTYNPSLKSRVSITRDTSKNQFFLQLNSVTPEDTATYYCARWRNWAMDYWGLGTSVTVSS
VL: DIQMTQTPSSLSASLGDRVTISCRANQDISHYLNWYQQKPDGAVKLLIYYTSRIHSGVPSRFSGSGSGTDYSLTIANLEQEDVATYFCQQGNTPPTTFGGGTKVEIK
B14: 3C9.10 (antibody, V domains shown)
VH: B7 VH with N30T, Q32S, S56N, R75K, V78I, H100Y
VL: B7 VL with N28G, N30S, H41D, P55H, S85T

Key:
[1] = target: MICA.008.a3.T204-S297.G243N.mIgG2a.Glyco14 (human; mouse) (UniProt Q29983); experiment: ELISA, coated variant
[2] = target: MICA.008.a3.T204-S297.R279N.mIgG2a.Glyco16 (human; mouse) (UniProt Q29983); experiment: ELISA, coated variant
[3] = target: MILL1-MICA chimera.murine IgG2a Fc fusion (mouse MILL1 with grafted human MICA*008 residues); experiment: ELISA, coated chimera
[4] = target: MICA.008.a3.T204-S297.H248N.mIgG2a.Glyco15 (human; mouse) (UniProt Q29983); experiment: ELISA, coated variant

| Binder | binding [1] | binding [2] | binding [3] | binding [4] |
| --- | --- | --- | --- | --- |
| B1 | no binding (tested: ELISA value not >0.65) | no binding (tested: ELISA value not >0.65) | no binding (tested: ELISA value not >0.65) | – |
| B2 | no binding (tested: ELISA value not >0.65) | no binding (tested: ELISA value not >0.65) | no binding (tested: ELISA value not >0.65) | – |
| B3 | no binding (tested: ELISA value not >0.65) | no binding (tested: ELISA value not >0.65) | no binding (tested: ELISA value not >0.65) | – |
| B4 | no binding (tested: ELISA value not >0.65) | no binding (tested: ELISA value not >0.65) | no binding (tested: ELISA value not >0.65) | – |
| B5 | no binding (tested: ELISA value not >0.65) | no binding (tested: ELISA value not >0.65) | no binding (tested: ELISA value not >0.65) | – |
| B6 | no binding (tested: ELISA value not >0.65) | no binding (tested: ELISA value not >0.65) | no binding (tested: ELISA value not >0.65) | – |
| B7 | – | – | no binding (tested: ELISA value not >0.65) | – |
| B8 | – | no binding (tested: ELISA value not >0.65) | no binding (tested: ELISA value not >0.65) | no binding (tested: ELISA value not >0.65) |
| B9 | – | no binding (tested: ELISA value not >0.65) | no binding (tested: ELISA value not >0.65) | no binding (tested: ELISA value not >0.65) |
| B10 | – | – | no binding (tested: ELISA value not >0.65) | no binding (tested: ELISA value not >0.65) |
| B11 | – | no binding (tested: ELISA value not >0.65) | no binding (tested: ELISA value not >0.65) | – |
| B12 | no binding (tested: ELISA value not >0.65) | – | no binding (tested: ELISA value not >0.65) | – |
| B13 | no binding (tested: ELISA value not >0.65) | – | no binding (tested: ELISA value not >0.65) | – |
| B14 | – | – | no binding (tested: ELISA value not >0.65) | no binding (tested: ELISA value not >0.65) |
